# Experimental data reported in publication PMC5996148.
# Where “and” joins values, the source holds several entries; their conditions need not be identical. Equal entries are not always repeated. The list shows a part of the results. For some assays here: The source does not settle which construct or isoform was used.
# Columns and labels:
# Experiment in all cases: protein microarray (ProtoArray v5.0), streptavidin-Alexa Fluor 647
# Conditions in all cases: 3'-biotin; 20 mM Tris (pH 7.5), 5 mM MgCl2, 100 mM KCl, 0.1% Tween-20, A/T-rich and random oligonucleotide blockers; temperature not stated; high values mean tight binding
# [1] = tested on: Linker for activation of T-cells family member 1 (human)
# [2] = tested on: LisH domain-containing protein ARMC9 (human)
# [3] = tested on: Ly6/PLAUR domain-containing protein 5 (human)
# M6PRBP1 (human) = tested on: M6PRBP1 (human)
# MAGEA4 (human) = tested on: MAGEA4 (human)
# MAGEH1 = biological target: T1, MAGEH1 (UniProt Q9H213)
# T1 sequence: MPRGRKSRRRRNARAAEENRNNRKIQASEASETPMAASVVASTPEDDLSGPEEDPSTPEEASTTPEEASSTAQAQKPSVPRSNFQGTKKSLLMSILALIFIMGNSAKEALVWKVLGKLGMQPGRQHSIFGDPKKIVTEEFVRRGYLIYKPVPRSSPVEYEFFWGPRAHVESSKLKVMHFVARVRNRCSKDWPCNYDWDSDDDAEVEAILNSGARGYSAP
# MAN2C1 (human) = tested on: MAN2C1 (human)
# MANSC1 (human) = tested on: MANSC1 (human)
# [4] = tested on: MAP3K12-binding inhibitory protein 1 (human)
# MAP4 (human) = tested on: MAP4 (human)
# MAPK9 (human) = tested on: MAPK9 (human)
# MARVELD2 (human) = tested on: MARVELD2 (human)
# MASP2 (human) = tested on: MASP2 (human)
# MAT1A (human) = tested on: MAT1A (human)
# MAT2B (human) = tested on: MAT2B (human)
# MB (human) = tested on: MB (human)
# MCFD2 (human) = tested on: MCFD2 (human)
# MCM2 (human) = tested on: MCM2 (human)
# MDP-1 (human) = tested on: MDP-1 (human)
# MED21 (human) = tested on: MED21 (human)
sequence,measurement,setting,value
GGGGACAGGGGTATGGGGAGGGG [G4-3 biotinylated (CtG)],binding signal,[1],-0.336 z-score
same,binding signal,[2],-0.341 z-score
same,binding signal,[3],-0.33 z-score
same,binding signal,M6PRBP1 (human),-0.344 z-score
same,binding signal,MAGEA4 (human),-0.33 z-score
same,binding signal,MAGEH1,4.47 z-score
same,binding signal,MAN2C1 (human),-0.323 z-score
same,binding signal,MANSC1 (human),-0.33 z-score
same,binding signal,[4],-0.281 z-score
same,binding signal,MAP4 (human),-0.316 z-score
same,binding signal,MAPK9 (human),-0.33 z-score
same,binding signal,MARVELD2 (human),-0.333 z-score
same,binding signal,MASP2 (human),-0.332 z-score
same,binding signal,MAT1A (human),-0.326 z-score
same,binding signal,MAT2B (human),-0.318 z-score
same,binding signal,MB (human),-0.33 z-score
same,binding signal,MCFD2 (human),-0.317 z-score
same,binding signal,MCM2 (human),-0.347 z-score and -0.33 z-score
same,binding signal,MDP-1 (human),-0.334 z-score and -0.329 z-score
same,binding signal,MED21 (human),-0.341 z-score

# Some of the entries so far, with bars between the fields:
sequence | measurement | setting | value
GGGGACAGGGGTATGGGGAGGGG [G4-3 biotinylated (CtG)] | binding signal | MAP4 (human) | -0.316 z-score
same | binding signal | MAPK9 (human) | -0.33 z-score
